At least one peptide structure holds a part that was inferred or is arguable (an end, a ring closure or a residue).
Tested on: Human peripheral blood lymphocytes
Experiment: Cytokine release of human peripheral blood lymphocytes challenged in vitro with tetanus toxoid
Type: cell-based
Conditions: in vitro treatment; tetanus toxoid challenge

In the case of `CSCC[C@H](NC(=O)[C@@H](NC(=O)[C@H](Cc1ccc(O)cc1)NC(=O)[C@H](Cc1ccc(O)cc1)NC(=O)CNC(=O)[C@H](CCCCN)NC(=O)[C@H](CCCCN)NC(=O)[C@H](C)NC(=O)[C@H](Cc1c[nH]c2ccccc12)NC(=O)[C@H](CCC(N)=O)NC(=O)[C@H](CC(C)C)NC(=O)[C@@H](N)C(C)C)[C@@H](C)O)C(=O)N[C@@H](CCCCN)C(=O)N[C@@H](CO)C(=O)N[C@@H](CC(N)=O)C(=O)O` [OPT101, VLQWAKKGYYTMKSN], the cytokine release is reported as “a decrease of this cytokine release. These data suggest that targeting the CD40”.

— patent publication US12048734B2, “Bioactive peptides and methods of use thereof” (OP-T LLC, priority 2020, dated 2024)
